Measurements reported in PMC10997755, “Discovery of a small-molecule inhibitor that traps Polθ on DNA and synergizes with PARP inhibitors” (Nature Communications, 2024).
The exact form of at least one protein or probe is not confirmed. For some of these results: The comparison behind a weaker result is the experiment's own reference, which may not be listed here. Protein sequences can lack the tags named with them. For some of these results: At least one verdict rests on a figure or table, not on a statement of the authors.

Legend:
Polθ-pol (human) [1] = molecular target: T1, Polθ-pol (human) (UniProt O75417); test: KpnI endonuclease protection; conditions: crystals: 0.24 M Na citrate, 18% PEG 3350, 0.1 M Bis Tris propane pH 7.5, with 1 mM MgCl2, 1 mM ddGTP, recombinant protein, residues 1792-2590, label: 32P (5')
T1 sequence (looked up): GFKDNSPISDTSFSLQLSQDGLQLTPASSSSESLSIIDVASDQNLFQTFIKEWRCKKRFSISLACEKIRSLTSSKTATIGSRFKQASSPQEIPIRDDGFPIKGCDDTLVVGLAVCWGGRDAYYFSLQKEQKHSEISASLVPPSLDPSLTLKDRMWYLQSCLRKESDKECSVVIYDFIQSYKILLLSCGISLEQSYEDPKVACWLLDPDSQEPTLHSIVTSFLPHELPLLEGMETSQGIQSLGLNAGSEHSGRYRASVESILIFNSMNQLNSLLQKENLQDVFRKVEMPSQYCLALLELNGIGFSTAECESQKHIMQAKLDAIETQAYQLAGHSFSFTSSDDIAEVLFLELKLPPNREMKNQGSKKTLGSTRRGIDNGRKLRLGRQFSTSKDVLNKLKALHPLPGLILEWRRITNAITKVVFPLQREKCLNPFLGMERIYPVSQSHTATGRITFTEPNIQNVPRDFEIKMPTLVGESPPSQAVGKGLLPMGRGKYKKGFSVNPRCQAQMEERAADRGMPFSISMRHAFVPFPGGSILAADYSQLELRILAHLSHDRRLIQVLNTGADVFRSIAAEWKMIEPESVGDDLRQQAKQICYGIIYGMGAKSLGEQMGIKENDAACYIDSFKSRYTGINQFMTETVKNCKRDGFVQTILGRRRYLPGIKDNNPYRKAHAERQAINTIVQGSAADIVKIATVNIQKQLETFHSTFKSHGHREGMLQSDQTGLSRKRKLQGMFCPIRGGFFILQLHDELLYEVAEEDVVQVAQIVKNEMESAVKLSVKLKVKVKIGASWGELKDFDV

Polθ-pol (human) [2] = molecular target: T1, Polθ-pol (human); test: EcoRI endonuclease protection with unlabeled DNA trap; conditions: no inhibitor, readily dissociates, cleavage rate nearly as without protein, crystals: 0.24 M Na citrate, 18% PEG 3350, 0.1 M Bis Tris propane pH 7.5, with 1 mM MgCl2, 1 mM ddGTP, recombinant protein, residues 1792-2590, label: 32P (5')

Sequence | binding result (Polθ-pol (human) [1]; RTx-152, ddCTP) | binding result (Polθ-pol (human) [1]; RTx-161, ddCTP) | binding result (Polθ-pol (human) [2]; ddCTP) | binding result (Polθ-pol (human) [2]; no nucleotide)
CCGGGGTACCGCAG / AGTAAGAGAACGCTGCGGTACCCCGG [LM11-Kpn/LM12-Kpn primer-template] | binds | binds |  | 
CGGCGAATTCGCAG / AGTAAGAGAACGCTGCGAATTCGCCG [LM3-EcoRI/LM4-EcoRI primer-template] |  |  | binds more weakly | binds more weakly
